Laboratory results from patent publication US20010036591A1 (priority 1999, published 2001).

Cc1ccc(S(=O)(=O)[O-])cc1.Cc1ccc([I+]c2ccc(CC(C)C)cc2)cc1 [Example 11, (4-isobutylphenyl)-ptolyl-iodonium p-tosylate]
minimum transmission value at which the resist is fully developed (2.0% iodonium salt based on polymer, 1 micrometre, exposure 120 seconds, no sensitiser): 16%
exposure energy (corresponding to the minimum transmission value, OAI 220 probe): 26.9 mJ/cm^2
